PubChem BioAssay AID504774, Drosophila RNAi Screening Center, 2011

- Assay: 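Knock-downs that shift viability of MMS-exposed cells relative to untreated ones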 (primary screen)
- Cells: Drosophila Kc167 cells
- Reagent: long dsRNA against Drosophila genes, about 0.25 µg dsRNA per well
- Time to read-out: about 6 days: 3 days knock-down, then 3 days with or without MMS
- Treatment: methyl methanesulphonate 0.004% (w/v) for 3 days after knock-down
- Measured: 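Viability in wells given MMS, read as ATP luminescence, normalised by quantiles plate by plate and averaged across replicates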
- Scale: mean viability with MMS and viability with MMS: higher = more surviving cells after MMS
The deposit covers about 23,000 reagents; shown is a random part of those that have a named target and a result. 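Values are quantile-normalised luminescence on an arbitrary scale; higher means more cells surviving MMS.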 Not all columns of the deposit are shown. Reagent sequences are not shown.

CG4066 [DRSC15541] | mean viability with MMS: 3.66e6; viability with MMS, replicate 1: 4.10e6
CG3222 [DRSC10355] | mean viability with MMS: 3.69e6; viability with MMS, replicate 1: 4.08e6
CG31041 [DRSC13951] | mean viability with MMS: 3.57e6; viability with MMS, replicate 1: 4.05e6
CG11898 [DRSC14432] | mean viability with MMS: 3.71e6; viability with MMS, replicate 1: 4.10e6
Myo10A (Myosin 10A) [DRSC19834] | mean viability with MMS: 3.63e6; viability with MMS, replicate 1: 4.11e6
Myo10A (Myosin 10A) [DRSC19837] | mean viability with MMS: 3.62e6; viability with MMS, replicate 1: 4.22e6
CG13972 [DRSC14715] | mean viability with MMS: 3.45e6; viability with MMS, replicate 1: 3.93e6
ArfGAP1 (ADP-ribosylation factor GTPase activating protein 1) [DRSC11173] | mean viability with MMS: 3.36e6; viability with MMS, replicate 1: 3.85e6
crol (crooked legs) [DRSC03514] | mean viability with MMS: 3.77e6; viability with MMS, replicate 1: 4.31e6
crol (crooked legs) [DRSC21348] | mean viability with MMS: 3.61e6; viability with MMS, replicate 1: 4.13e6
Myo28B1 (Myosin 28B1) [DRSC03375] | mean viability with MMS: 3.48e6; viability with MMS, replicate 1: 3.97e6
CG43902 [DRSC17999] | mean viability with MMS: 3.47e6; viability with MMS, replicate 1: 3.94e6
ATPsynE (ATP synthase, subunit E) [DRSC15476] | mean viability with MMS: 3.67e6; viability with MMS, replicate 1: 4.17e6
MBD-R2 [DRSC14180] | mean viability with MMS: 3.54e6; viability with MMS, replicate 1: 3.97e6
CG43867 [DRSC17582] | mean viability with MMS: 3.46e6; viability with MMS, replicate 1: 3.96e6
CG43867 [DRSC17836] | mean viability with MMS: 3.63e6; viability with MMS, replicate 1: 4.13e6
CG43867 [DRSC17837] | mean viability with MMS: 3.53e6; viability with MMS, replicate 1: 3.89e6
CG43867 [DRSC17943] | mean viability with MMS: 3.59e6; viability with MMS, replicate 1: 4.20e6
Snx1 (Sorting nexin 1) [DRSC00531] | mean viability with MMS: 3.65e6; viability with MMS, replicate 1: 4.12e6
bigmax [DRSC15481] | mean viability with MMS: 3.48e6; viability with MMS, replicate 1: 3.88e6
CG12204 [DRSC19442] | mean viability with MMS: 3.64e6; viability with MMS, replicate 1: 4.21e6
CG17738 [DRSC15257] | mean viability with MMS: 3.52e6; viability with MMS, replicate 1: 3.99e6
Fas3 (Fasciclin 3) [DRSC01638] | mean viability with MMS: 3.00e6; viability with MMS, replicate 1: 3.60e6
Fas3 (Fasciclin 3) [DRSC03326] | mean viability with MMS: 3.32e6; viability with MMS, replicate 1: 3.64e6
Fas3 (Fasciclin 3) [DRSC22776] | mean viability with MMS: 3.50e6; viability with MMS, replicate 1: 4.02e6
Slu7 [DRSC14729] | mean viability with MMS: 3.23e6; viability with MMS, replicate 1: 3.64e6
CG8788 [DRSC07267] | mean viability with MMS: 3.55e6; viability with MMS, replicate 1: 4.08e6
Mtmr6 (Myotubularin related protein 6) [DRSC04046] | mean viability with MMS: 3.51e6; viability with MMS, replicate 1: 3.93e6
cold (coiled) [DRSC00538] | mean viability with MMS: 3.63e6; viability with MMS, replicate 1: 4.29e6
l(3)S110416 (retired record) [DRSC17094] | mean viability with MMS: 3.72e6; viability with MMS, replicate 1: 4.19e6
eIF3j (eukaryotic translation initiation factor 3 subunit j) [DRSC06107] | mean viability with MMS: 3.42e6; viability with MMS, replicate 1: 3.85e6
CG17287 [DRSC06659] | mean viability with MMS: 3.53e6; viability with MMS, replicate 1: 3.97e6
mahj (mahjong) [DRSC04053] | mean viability with MMS: 3.35e6; viability with MMS, replicate 1: 3.55e6
Mid1 [DRSC04230] | mean viability with MMS: 3.41e6; viability with MMS, replicate 1: 3.90e6
Mid1 [DRSC04231] | mean viability with MMS: 3.48e6; viability with MMS, replicate 1: 4.01e6
Mid1 [DRSC04308] | mean viability with MMS: 3.32e6; viability with MMS, replicate 1: 3.81e6
Mid1 [DRSC22773] | mean viability with MMS: 3.45e6; viability with MMS, replicate 1: 3.93e6
Mid1 [DRSC22803] | mean viability with MMS: 3.43e6; viability with MMS, replicate 1: 3.92e6

Copied from the list.
Value of ArfGAP1 (ADP-ribosylation factor GTPase activating protein 1) [DRSC11173] in “mean viability with MMS”: 3.36e6
For “viability with MMS, replicate 1”, Mid1 [DRSC22773] shows 3.93e6
Entry of CG12204 [DRSC19442] in “mean viability with MMS”: 3.64e6
Entry for crol (crooked legs) [DRSC21348] in “mean viability with MMS”: 3.61e6
